This passage reports z-score results from PubChem BioAssay AID1347423 (Functional Genomics Laboratory (NCATS/FGL), 2020).

Screen size: about 52,000 sequences; about 210 (0.4%) were called active.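 Rule for the calls: active = gene whose silencing raises cell survival under the drug, median off-target-corrected z-score across its silencing RNAs 2 or more; inactive = the rest.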 Some of the results follow.

This test in a line: Resistance to Poly (ADP-Ribose) Polymerase inhibitor: Gene Identification via Genome-wide siRNA Screen. Particulars: mouse BRCA2 R2336H ES cells, olaparib, CellTiter-Glo viability; active compounds read high. Summed up: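 Mouse BRCA2 R2336H ES cells were reverse-transfected with siRNA (20 nM final), treated at 48 h with 500 nM olaparib, and read by CellTiter-Glo after 72 h. Scores: MAD-based z per siRNA, median per gene, seed off-target correction.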
Turning to GGCUUGAAGCCCUAGUACUTT against Tmprss8, the z-score is inactive: -0.174.
For GGAAAUUUUUGGUGAAAGGTT against Dnajb7 the value was inactive: -0.272; for “GGAACAAAGUUAAAUCCAATT against 4930405J24Rik”, inactive: -1.84; for GGUCAUCCUGGACAAUCUCTT against Syt6, inactive: 0.707.
For GGAAAGAGAGAAGAAAUAGTT against Lmo2 the value was inactive: 0.527; for GCAGAUUGAGCCUGUCAAUTT against Ddx39, inactive: -0.13; for GCUUAGAGCUUCAUAUAGCTT against Tlr12, inactive: 0.0538.
The value for GGCUCGUGAUCGAAAUCUUTT against Il1rl1l was inactive: 0.5.
Take “CCGAUCACUUUAUCUUCACTT against A930011F22Rik”: the z-score is inactive: 1.28.
The value for “GGCUUCAAAAACGACUAAATT against 4921537D05Rik” was inactive: -1.03.
The value for CCUCGUUCAUACGACAGAATT against BC062951 was inactive: -0.447; that for GGAAAAGAUACGGAAGAUUTT against Acpp was active: 0.216; that for GGAUUUUGGCCUUUCCAUUTT against Ly86 was inactive: 1.78.
For UGAUUUCAACAAGUGGCAUTT against Olfr730, the z-score was inactive: 2.37.
The value for GGAACAAGAGAAGAUCCUCTT against Cd209b was inactive: 1.63.
The value for “CCUAUGUCAUUUGUAAUGATT against A630018P17Rik” was inactive: 0.312; that for “CCAAGGUAAAUUACUAUGATT against 4930519N13Rik” was inactive: 0.142.
The value for GCAUUUAUCACAUGGACAUTT against Tle4 was inactive: -1.14.
As for GGACAACCAGAAAUGUAUGTT against Grid1, the z-score was inactive: -0.385.
Take CCAAUGAAGAUCCUUCCACTT against Gabra3: the z-score was inactive: -0.582.
The value for GGACACACAAGAGAAGAUCTT against Thop1 was inactive: -0.612.
For GGAUGUCCUUGACUUUAAATT against Atp6v0a4, the z-score is inactive: -0.208.
The value for CGGCAUCGUCAGCUAUUAATT against Pip5k1a was inactive: -1.61; that for GGGCUACACUUCUGUCUACTT against Nanos3 was inactive: -1.59.
The value for GGCGAGUUCAGGAGUUUACTT against Fmnl1 was inactive: -0.146; that for GGUCCUGAAUUUCAUCCUUTT against Galgt2 was inactive: 1.04.
For GCGAGCUAAACAUUCUGAATT against Mgea6 the value was inactive: 0.68; for CCUGAGACUAGACAGAUGGTT against Hmga1, inactive: -1.16.
Consider GGAUAUAAAGGGAGCUUUUTT against Olfr397, for which the z-score is inactive: -1.25.
The value for GGAAGUAUGUGGAUAAAUUTT against Usp5 was inactive: -2.84; that for GGAUUAUUCCCUUUCUUCCTT against Sh3md1 was inactive: 0.138; that for GGAGCUGGCAGACAUCACUTT against Ube2e1 was inactive: -0.385.
The value for “GGAUCACUGACUUUGAAUUTT against 2700078K21Rik” was inactive: 1.28; that for GGGAACAAGGAACUCAAAGTT against Igsf4a was inactive: 0.405; that for “GGAUGAGAAUAUUGAAAGATT against 4932415M13” was inactive: -0.114.
For GGUUUUUUUUCCUUUCCCUTT against Frs3 the value was inactive: -0.159; for GGUUCUGGCUCCUUGGACUTT against Oscar, inactive: -3.21.
As for GCACGAGAGUCUGAAGGAUTT against Mns1, the z-score is inactive: -1.29.
The value for GCCACUCGGAGAUUUUUCATT against Slc15a4 was inactive: -0.468.
GCAAUCCUCUUCACCCUCUTT against Olfr1495: the z-score was inactive: -2.21.
For GCCUUUAAUUUUGACAACUTT against V1rh20 the value was inactive: 1.16; for GCACUAAUCAACUUAAGUCTT against Zfpn1a5, inactive: 0.715.
The value for GGAAAAAGUGAAAACCUUGTT against Jun was inactive: 0.897.
The value for GGAGGAAAGAAGAAAUAUCTT against Parvg was inactive: -0.373.
On to CGUUGGUAUUUCCUUUGUATT against Slfn4, for which the z-score is inactive: -0.847.
GGAAUGUUACAUUUCAGUUTT against Adam1a: the z-score was inactive: 0.191.
As to GGUGUUCCAAGAGUCGUCATT against BC030867, the z-score was inactive: -0.341.
For the sequence GCAGAUCAUUAAGAUCCGATT against Ruvbl1, the z-score was inactive: 0.412.
For GUCCUCGUAGGAACAGCAUTT against Olfr1265 the value was inactive: 1.15; for GGGUUACCAGUUUGAGGAGTT against Pex5, inactive: 0.817; for “GGUCAAGUACAAAAGAGAUTT against 1200007O21Rik”, inactive: 0.255.
The value for GGUGCAAAUGUUCUCAUCUTT against AI317395 was inactive: 3.44; that for GUAUUGGAUACGAAGCAGATT against Defb2 was inactive: -0.461.
For “CGGAAAAUCCUGCCUCCCUTT against 4930429A08Rik” the value was inactive: 0.212; for CGCGGUGUUCGACAUCUUGTT against AI326906, inactive: 0.615.
Take GGAACUUGAAAGAGAUUCUTT against Usp28: the z-score was inactive: -0.198.
As to GGACAGUGACCAAUUAUUUTT against Tacr1, the z-score is inactive: -0.588.
In the case of CCCAGCCGUAACUUAUGAGTT against Pga5, the z-score is inactive: 0.133.
For “GGUGCUUAGAGUCAAGAAUTT against 2600017H02Rik” the value was inactive: 1.28; for CGAUGGUGAUUAUCUAAAATT against Tm4sf4, inactive: -0.302; for GGUUGUUCACUAGGUCACUTT against Creg2, inactive: 0.0477.
The value for GGACAAAGUCACAGAGUCCTT against Pres was inactive: -0.992; that for GGCUAUGGGAAUCAUGAAUTT against Hist2h2bb was inactive: 0.606; that for “GCAGUAGCGACGAAGGAUGTT against 2310020H19Rik” was inactive: -1.46.
For GCAUAACCAAGUGUGAUGCTT against Arpm2 the value was inactive: 1.32.
As for GGCCGUUUUUUGGCAUCGUTT against Acas2l, the z-score was inactive: 1.36.
For CCAUGUGCGACCUGAUAAUTT against Cklfsf7 the value was inactive: -0.677.
